Results on four substances are retold here after paper PMC11841684.

Sequences of proteins named here, by UniProt entry; tags and fusion partners are left off. A change or cut given only in a name is not applied to a line headed by its entry. Residues count along the entry.
UniProt P02533: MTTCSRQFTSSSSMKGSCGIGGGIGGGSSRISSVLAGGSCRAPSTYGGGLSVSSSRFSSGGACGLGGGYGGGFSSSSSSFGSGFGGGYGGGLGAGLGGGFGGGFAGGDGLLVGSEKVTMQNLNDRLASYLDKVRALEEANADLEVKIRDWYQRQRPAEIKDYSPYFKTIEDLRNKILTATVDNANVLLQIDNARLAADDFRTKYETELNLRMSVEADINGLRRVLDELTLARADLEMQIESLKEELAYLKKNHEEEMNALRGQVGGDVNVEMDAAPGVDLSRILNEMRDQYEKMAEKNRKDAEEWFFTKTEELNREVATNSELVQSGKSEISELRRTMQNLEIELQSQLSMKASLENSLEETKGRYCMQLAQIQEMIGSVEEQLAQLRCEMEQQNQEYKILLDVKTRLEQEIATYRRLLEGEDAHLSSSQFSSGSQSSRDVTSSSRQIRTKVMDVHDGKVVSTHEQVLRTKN
UniProt Q96RW7: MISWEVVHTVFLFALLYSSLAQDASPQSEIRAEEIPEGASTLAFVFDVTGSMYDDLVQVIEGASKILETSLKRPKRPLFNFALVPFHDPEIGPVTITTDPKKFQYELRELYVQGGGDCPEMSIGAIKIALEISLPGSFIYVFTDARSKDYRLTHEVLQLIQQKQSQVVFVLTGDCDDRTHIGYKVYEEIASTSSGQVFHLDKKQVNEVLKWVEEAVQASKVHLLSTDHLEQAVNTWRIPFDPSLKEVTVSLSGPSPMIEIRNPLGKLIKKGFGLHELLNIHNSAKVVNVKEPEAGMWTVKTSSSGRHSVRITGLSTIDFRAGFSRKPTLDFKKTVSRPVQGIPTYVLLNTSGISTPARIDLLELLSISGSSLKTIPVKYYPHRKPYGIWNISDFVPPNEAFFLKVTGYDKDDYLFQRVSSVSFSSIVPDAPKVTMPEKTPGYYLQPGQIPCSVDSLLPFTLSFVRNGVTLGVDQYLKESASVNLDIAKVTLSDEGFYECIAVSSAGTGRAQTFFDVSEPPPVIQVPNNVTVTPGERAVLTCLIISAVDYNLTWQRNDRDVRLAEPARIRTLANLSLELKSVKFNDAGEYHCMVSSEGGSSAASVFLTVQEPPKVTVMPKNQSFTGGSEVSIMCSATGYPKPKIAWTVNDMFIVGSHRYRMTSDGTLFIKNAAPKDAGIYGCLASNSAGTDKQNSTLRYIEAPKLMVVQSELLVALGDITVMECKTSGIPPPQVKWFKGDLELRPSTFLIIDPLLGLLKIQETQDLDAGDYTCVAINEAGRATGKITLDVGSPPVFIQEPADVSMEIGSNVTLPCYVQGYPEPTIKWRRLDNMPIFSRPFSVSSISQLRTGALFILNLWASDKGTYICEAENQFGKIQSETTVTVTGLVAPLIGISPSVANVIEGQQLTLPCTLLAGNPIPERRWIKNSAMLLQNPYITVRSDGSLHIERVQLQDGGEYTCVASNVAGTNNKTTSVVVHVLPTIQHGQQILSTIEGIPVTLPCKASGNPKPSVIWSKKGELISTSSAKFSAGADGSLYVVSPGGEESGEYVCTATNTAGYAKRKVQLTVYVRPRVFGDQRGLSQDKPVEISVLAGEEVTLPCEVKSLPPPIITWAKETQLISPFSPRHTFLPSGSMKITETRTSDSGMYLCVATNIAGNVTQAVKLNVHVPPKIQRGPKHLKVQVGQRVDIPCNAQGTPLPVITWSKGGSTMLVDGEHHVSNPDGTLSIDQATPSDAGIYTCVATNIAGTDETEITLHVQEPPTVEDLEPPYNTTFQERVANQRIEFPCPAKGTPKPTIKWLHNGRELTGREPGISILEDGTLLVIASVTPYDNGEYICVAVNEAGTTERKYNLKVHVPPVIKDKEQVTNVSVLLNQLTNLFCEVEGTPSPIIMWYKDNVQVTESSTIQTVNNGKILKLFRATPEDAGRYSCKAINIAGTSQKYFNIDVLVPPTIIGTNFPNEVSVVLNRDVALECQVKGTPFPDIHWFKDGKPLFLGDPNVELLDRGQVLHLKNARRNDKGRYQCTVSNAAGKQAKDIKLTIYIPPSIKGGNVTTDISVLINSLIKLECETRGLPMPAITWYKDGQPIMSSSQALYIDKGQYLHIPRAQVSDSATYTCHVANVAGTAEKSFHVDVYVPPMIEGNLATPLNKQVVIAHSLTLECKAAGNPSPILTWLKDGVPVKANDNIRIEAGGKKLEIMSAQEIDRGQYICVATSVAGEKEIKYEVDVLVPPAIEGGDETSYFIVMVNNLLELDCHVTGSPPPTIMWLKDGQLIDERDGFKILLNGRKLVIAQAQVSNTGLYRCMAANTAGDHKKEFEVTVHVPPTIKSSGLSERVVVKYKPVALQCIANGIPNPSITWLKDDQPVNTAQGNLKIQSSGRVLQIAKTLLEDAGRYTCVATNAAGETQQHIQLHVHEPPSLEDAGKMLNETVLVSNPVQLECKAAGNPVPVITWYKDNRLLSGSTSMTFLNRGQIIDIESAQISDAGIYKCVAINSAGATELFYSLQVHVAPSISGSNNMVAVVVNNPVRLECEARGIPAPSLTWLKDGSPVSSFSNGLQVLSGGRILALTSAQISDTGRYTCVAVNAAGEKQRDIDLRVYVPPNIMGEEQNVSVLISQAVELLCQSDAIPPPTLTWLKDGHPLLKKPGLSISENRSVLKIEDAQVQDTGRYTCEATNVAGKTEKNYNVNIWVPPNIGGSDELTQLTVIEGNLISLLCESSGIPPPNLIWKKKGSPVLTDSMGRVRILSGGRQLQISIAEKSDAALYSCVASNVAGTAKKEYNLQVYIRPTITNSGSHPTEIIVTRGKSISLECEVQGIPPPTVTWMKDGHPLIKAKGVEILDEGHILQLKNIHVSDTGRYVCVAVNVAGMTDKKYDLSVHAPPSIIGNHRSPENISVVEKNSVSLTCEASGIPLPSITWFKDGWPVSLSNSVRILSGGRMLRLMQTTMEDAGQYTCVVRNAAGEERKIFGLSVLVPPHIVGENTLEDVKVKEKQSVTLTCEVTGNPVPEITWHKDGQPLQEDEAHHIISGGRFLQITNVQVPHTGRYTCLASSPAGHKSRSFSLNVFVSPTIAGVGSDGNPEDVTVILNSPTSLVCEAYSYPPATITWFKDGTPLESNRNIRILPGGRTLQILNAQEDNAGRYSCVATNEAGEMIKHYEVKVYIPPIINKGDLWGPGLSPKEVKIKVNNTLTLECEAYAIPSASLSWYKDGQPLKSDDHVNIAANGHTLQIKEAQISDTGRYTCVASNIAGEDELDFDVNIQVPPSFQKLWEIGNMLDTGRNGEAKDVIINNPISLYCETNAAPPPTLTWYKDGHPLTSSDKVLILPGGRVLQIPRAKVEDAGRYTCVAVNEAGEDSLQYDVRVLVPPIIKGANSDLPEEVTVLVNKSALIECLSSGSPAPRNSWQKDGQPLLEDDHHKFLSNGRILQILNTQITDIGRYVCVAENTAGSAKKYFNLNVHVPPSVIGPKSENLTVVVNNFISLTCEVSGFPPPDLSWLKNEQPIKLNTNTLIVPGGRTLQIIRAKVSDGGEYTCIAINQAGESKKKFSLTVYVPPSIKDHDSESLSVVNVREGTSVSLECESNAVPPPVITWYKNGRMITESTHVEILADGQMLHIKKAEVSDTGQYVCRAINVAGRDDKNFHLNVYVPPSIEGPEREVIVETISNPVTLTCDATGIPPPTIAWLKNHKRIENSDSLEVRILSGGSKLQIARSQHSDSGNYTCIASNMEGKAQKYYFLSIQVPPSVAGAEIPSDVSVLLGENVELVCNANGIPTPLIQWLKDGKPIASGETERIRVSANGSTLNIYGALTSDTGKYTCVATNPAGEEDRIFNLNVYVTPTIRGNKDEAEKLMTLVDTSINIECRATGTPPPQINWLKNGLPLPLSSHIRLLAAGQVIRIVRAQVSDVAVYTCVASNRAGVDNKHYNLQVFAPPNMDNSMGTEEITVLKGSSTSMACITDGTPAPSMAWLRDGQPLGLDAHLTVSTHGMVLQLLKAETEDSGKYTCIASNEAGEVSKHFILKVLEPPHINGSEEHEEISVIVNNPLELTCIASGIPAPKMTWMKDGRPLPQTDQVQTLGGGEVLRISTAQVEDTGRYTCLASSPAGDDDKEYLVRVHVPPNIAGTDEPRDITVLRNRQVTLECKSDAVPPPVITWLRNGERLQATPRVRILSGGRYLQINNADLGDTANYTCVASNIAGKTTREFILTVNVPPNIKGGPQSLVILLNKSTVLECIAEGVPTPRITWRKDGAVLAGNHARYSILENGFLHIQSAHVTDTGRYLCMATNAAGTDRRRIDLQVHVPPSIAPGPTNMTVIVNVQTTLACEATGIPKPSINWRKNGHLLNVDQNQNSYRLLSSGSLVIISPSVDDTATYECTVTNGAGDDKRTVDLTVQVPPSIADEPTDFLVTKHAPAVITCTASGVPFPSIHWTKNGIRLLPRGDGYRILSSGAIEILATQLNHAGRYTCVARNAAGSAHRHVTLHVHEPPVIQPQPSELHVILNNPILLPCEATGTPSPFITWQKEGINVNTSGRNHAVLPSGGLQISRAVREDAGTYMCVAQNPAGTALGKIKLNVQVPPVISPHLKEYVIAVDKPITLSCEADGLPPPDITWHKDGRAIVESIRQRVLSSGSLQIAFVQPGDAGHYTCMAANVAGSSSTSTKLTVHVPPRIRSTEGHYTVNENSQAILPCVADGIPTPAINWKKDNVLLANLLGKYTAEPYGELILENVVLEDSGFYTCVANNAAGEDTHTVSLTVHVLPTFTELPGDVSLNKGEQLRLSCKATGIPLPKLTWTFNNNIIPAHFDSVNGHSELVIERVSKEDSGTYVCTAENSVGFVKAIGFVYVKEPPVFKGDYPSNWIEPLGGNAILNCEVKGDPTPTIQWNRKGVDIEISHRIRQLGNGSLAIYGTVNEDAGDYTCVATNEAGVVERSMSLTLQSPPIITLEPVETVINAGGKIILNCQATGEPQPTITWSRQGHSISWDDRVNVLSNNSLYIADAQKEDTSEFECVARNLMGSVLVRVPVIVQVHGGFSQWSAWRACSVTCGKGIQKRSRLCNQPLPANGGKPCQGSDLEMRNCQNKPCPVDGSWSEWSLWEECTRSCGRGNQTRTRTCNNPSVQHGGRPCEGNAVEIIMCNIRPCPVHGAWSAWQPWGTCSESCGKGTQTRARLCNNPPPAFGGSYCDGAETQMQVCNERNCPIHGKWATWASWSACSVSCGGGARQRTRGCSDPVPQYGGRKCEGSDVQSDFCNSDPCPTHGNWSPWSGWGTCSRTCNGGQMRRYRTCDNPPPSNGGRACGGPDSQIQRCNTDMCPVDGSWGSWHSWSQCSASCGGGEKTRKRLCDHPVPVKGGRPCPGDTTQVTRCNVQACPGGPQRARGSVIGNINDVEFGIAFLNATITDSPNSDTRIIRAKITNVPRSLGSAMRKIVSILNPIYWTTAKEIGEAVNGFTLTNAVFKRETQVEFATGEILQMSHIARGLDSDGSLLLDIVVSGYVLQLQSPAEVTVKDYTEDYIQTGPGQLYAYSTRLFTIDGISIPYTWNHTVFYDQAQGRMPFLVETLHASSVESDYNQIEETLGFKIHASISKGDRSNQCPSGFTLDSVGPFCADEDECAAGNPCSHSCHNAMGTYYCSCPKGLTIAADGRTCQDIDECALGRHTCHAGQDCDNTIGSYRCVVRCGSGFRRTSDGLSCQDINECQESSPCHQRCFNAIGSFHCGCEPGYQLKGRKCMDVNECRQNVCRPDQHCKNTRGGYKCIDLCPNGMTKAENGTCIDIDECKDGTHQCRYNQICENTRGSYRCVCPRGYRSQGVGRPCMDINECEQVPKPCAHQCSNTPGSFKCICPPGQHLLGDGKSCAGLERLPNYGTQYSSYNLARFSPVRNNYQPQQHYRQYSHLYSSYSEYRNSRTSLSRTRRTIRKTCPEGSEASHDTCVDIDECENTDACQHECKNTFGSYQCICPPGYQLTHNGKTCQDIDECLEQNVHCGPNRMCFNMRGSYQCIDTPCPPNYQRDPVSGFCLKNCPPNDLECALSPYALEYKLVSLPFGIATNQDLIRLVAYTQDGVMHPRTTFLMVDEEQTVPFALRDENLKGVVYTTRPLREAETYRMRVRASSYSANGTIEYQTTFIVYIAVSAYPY
hemicentin-1 N-(VWFA) terminal part (aa 1–212), LexA fusion bait (pB29-HMCN1): residues 1-212 of Q96RW7

Results are given in words; binding and its absence hold for the method and conditions named. For some assays here: In cells and extracts the contact can be indirect. Some entries that bind do so weakly or less than the wild type.

The target in one test is Flag-tagged K14 (human) (UniProt P02533). Nature of the test: co-IP; HeLa cells co-transfected for 48 h; lysate in 50 mM Tris, 150 mM NaCl, 5 mM EDTA, 1% NP40; anti-FLAG antibody on protein A/G magnetic beads, overnight at 4°C; immunoblot with anti-His antibody.
Test [1] addresses hemicentin-1 N-(VWFA) terminal part (aa 1–212), LexA fusion bait (pB29-HMCN1) (human) (UniProt Q96RW7). Kind of test: two-hybrid; library screen by mating (Hybrigenics): HMCN1(1-212)-LexA bait against a random-primed human reconstituted skin (EpiSkin) cDNA library in pP6; His+ colonies selected on medium lacking tryptophan, leucine and histidine.
The target is the same in test [2]. Kind of test: two-hybrid; solid growth test, one bait against one prey: streaks of three independent diploid yeast clones on DO-2 and DO-3 media, HIS3 reporter; empty bait and prey vectors as negative controls.
Test [3] deals with keratin 14 (endogenous, healthy human skin) (human (endogenous in skin)) (UniProt P02533). Nature of the test: proximity ligation; Duolink In Situ Red kit on 5-μm paraffin-embedded tissue sections; rabbit anti-hemicentin-1 or rabbit anti-cytokeratin 5 with mouse anti-cytokeratin 14 antibody.

For “His-tagged hemicentin-1 VWFA domain (from UniProt Q96RW7 41-216) (domain or fragment)”, the binding entry with Flag-tagged K14 (human) is given as “binds”.

With “keratin 14 (aa 92–188) prey (pP7-KRT14) (from UniProt P02533 92-188) (domain or fragment)”, the binding result in test [1] and in test [2] was “binds” throughout.

On to “keratin 5 (endogenous, human skin) (from UniProt P13647 1-590)”, for which, in test [3], the binding entry was “binds”.

On to “hemicentin-1 (endogenous, healthy human skin) (from UniProt Q96RW7 22-5635)”, for which the binding result in test [3] was “binds”.
